The list shows only some results of the screen, not a fair sample: it is rich in T/C values a quarter to a half above the control, in often repeated tests (any T/C) and in doses without a T/C. Further doses and runs are listed elsewhere. T/C gives the treated animals as a percentage of the vehicle group. Some doses have a count of surviving animals in place of a T/C: the source files T/C as zero there, which appears to mark a toxic dose or a test without result, not a measured value. Some doses without a T/C left all or most animals alive at the check, yet need not have been tolerated: the source hardly ever lists a survival T/C far under the control, and the zero likely stands for such cases as well. Counts of survivors are from the toxicity check (mostly the fifth day) where no day follows; animals may have died later. Schedule codes are those of the source, taken here to give the interval after Q, in days (D) or hours (H), and the number of doses after X. For survival time, the PubChem record calls one and a half times the control and up active, and a quarter to a half above the control has no call in these data; cut-offs in other NCI protocols can differ. Some T/C values are followed by the survivors on the day toxicity was checked, most often the fifth; where none is given, no animal had died by that day. Some entries hold several experiments; their values stand side by side, smallest first. Brackets with × count equal records among those shown. Some schedules carry Z or #; the key to these is not given.
Tested on: L1210 leukemia ip in BDF1 mice, survival T/C
Experiment: NCI In Vivo Anticancer Drug Screen. Data for tumor model L1210 Leukemia (intraperitoneal) in B6D2F1 (BDF1) mice
Conditions: T/C endpoint: mean survival time, higher T/C = longer survival
[1] = dose: 100.0 mg/kg/injection, schedule: Q01DX015 (ip), vehicle: water

`Nc1nc2n[nH]nc2c(=O)[nH]1` was tested. Which T/C (dose: 50.0 mg/kg/injection, schedule: Q01DX009 (ip), vehicle: other, evaluated on day 30) did it give?
The T/C was 142 % of control.

What about the T/C (dose: 50.0 mg/kg/injection, schedule: Q01DX009 (ip), vehicle: other, evaluated on day 40) of the same molecule?
The T/C was 148 % of control.

What about the T/C (dose: 50.0 mg/kg/injection, schedule: Q01DX009 (ip), vehicle: saline) of the same molecule?
The T/C was 148 % of control.

What about the T/C (dose: 50.0 mg/kg/injection, schedule: Q01DX009 (ip), vehicle: water) of the same molecule?
The T/C was 141 and 148 % of control.

What about the T/C (dose: 50.0 mg/kg/injection, schedule: Q01DX009 (sc), vehicle: carboxymethylcellulose (CMC)) of the same molecule?
The T/C was 125 % of control.

And the T/C (dose: 50.0 mg/kg/injection, schedule: Q01DX010 (ip), vehicle: alkali diluted with saline)?
The T/C was 139, 150, 152, 155 % of control.

What about the T/C (dose: 50.0 mg/kg/injection, schedule: Q01DX Z (ip), vehicle: other) of the same molecule?
The T/C was 116, 144, 148, 154 % of control.

What about the T/C (dose: 62.0 mg/kg/injection, schedule: Q01DX001 (ip), vehicle: carboxymethylcellulose (CMC)) of the same molecule?
The T/C was 131 % of control.

And the T/C (dose: 62.0 mg/kg/injection, schedule: Q06DX003 (ip), vehicle: carboxymethylcellulose (CMC))?
The T/C was 138 % of control.

And the T/C (dose: 62.0 mg/kg/injection, schedule: Q08DX003 (ip), vehicle: carboxymethylcellulose (CMC))?
The T/C was 128 % of control.

What about the T/C (dose: 62.0 mg/kg/injection, schedule: Q10DX003 (ip), vehicle: carboxymethylcellulose (CMC)) of the same molecule?
Its T/C is 126 % of control.

What about the T/C (dose: 62.0 mg/kg/injection, schedule: Q## X003 (ip), vehicle: carboxymethylcellulose (CMC)) of the same molecule?
The T/C was 148 % of control.

What about the T/C (dose: 62.5 mg/kg/injection, schedule: Q## X003 (ip), vehicle: carboxymethylcellulose (CMC)) of the same molecule?
The T/C was 148 % of control.

What about the T/C (dose: 75.0 mg/kg/injection, schedule: Q01DX005 (ip), vehicle: other) of the same molecule?
Its T/C is 134 % of control.

And the T/C (dose: 75.0 mg/kg/injection, schedule: Q01DX009 (ip), vehicle: other)?
Its T/C is 142 % of control.

And the T/C (dose: 75.0 mg/kg/injection, schedule: Q01DX009 (sc), vehicle: carboxymethylcellulose (CMC))?
The T/C was 144 % of control.

What about the T/C (dose: 75.0 mg/kg/injection, schedule: Q01DX Z (ip), vehicle: other) of the same molecule?
The T/C was 135 % of control.

What about the T/C (dose: 75.0 mg/kg/injection, schedule: Q03DX Z (ip), vehicle: water) of the same molecule?
Its T/C is 133 % of control.

What about the T/C (dose: 75.0 mg/kg/injection, schedule: Q#A X Z (ip), vehicle: carboxymethylcellulose (CMC)) of the same molecule?
The T/C was 140 % of control.

What about the T/C (dose: 89.4 mg/kg/injection, schedule: Q01DX Z (ip), vehicle: carboxymethylcellulose (CMC)) of the same molecule?
Its T/C is 143 % of control.

What about the T/C (dose: 100.0 mg/kg/injection, schedule: Q01DX005 (ip), vehicle: saline with Tween-80) of the same molecule?
The T/C was 100, 125, 127, 134 (2×), 135, 136, 138, 139, 144 (3×), 146 (2×), 148, 152, 157, 161 (2×), 163, 175 % of control.

What about the T/C (dose: 100.0 mg/kg/injection, schedule: Q01DX005 (ip), vehicle: saline) of the same molecule?
Its T/C is 119, 130 (2×), 133, 137 (4×), 138 (2×), 139, 140 (3×), 140 [5 of 6 alive], 142, 144, 145, 147 [4 of 6 alive], 147 [6 of 7 alive], 148 (2×), 149, 150 (3×), 151 (3×), 152 (2×), 152 [5 of 6 alive], 153, 155 (2×), 158 (3×), 160, 162, 162 [5 of 6 alive], 162 [6 of 7 alive], 164, 173, 175, 183 % of control.

And the T/C (dose: 100.0 mg/kg/injection, schedule: Q01DX006 (iv), vehicle: water)?
Its T/C is 128 % of control [5 of 6 alive].

What about the T/C (dose: 100.0 mg/kg/injection, schedule: Q01DX009 (ip), vehicle: saline with Tween-80) of the same molecule?
The T/C was 125 % of control [5 of 6 alive].

And the T/C (dose: 100.0 mg/kg/injection, schedule: Q01DX009 (ip), vehicle: saline)?
Its T/C is 141 % of control.

What about the T/C (dose: 100.0 mg/kg/injection, schedule: Q01DX009 (ip), vehicle: water) of the same molecule?
The T/C was 127 % of control [4 of 6 alive].

And the T/C (dose: 100.0 mg/kg/injection, schedule: Q01DX010 (ip), vehicle: alkali diluted with saline)?
Its T/C is 154, 155 (2×), 161 % of control.

What about the survivor count (dose: 100.0 mg/kg/injection, schedule: Q01DX015 (ip), vehicle: clinical formulation) of the same molecule?
The survivor count was 0 of 6.

What about the T/C [1] of the same molecule?
The T/C was 140 % of control [4 of 6 alive].

And the survivor count [1]?
Its survivor count is 4 of 6.

Source: PubChem BioAssay AID248 (DTP/NCI, 2004)
